This is one part of the list.
compound: C=CC(=O)N1CCC[C@@H](n2nc(-c3ccc(Oc4ccccc4)cc3)c3c(N)ncnc32)C1 [ibrutinib]; test: log2 fold change, soluble protein after heating vs DMSO (PISA); higher = thermal stabilisation; K562 lysate, 10 uM; active = over 0.2 and 3.5 SD of the protein, either way, in both replicates (recomputed)
Method in brief: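 Soluble protein was defined as the supernatant remaining after 21,000xg for 90 min, following pooling of heated aliquots and adjustment to 0.5% NP-40 at 4°C. Before that, crude K562 extract at 1 mg/mL protein in PBS pH 7.4 with 1 mM MgCl2 was treated with 10 μM compound for 30 min and heated for 3 min across 48°C-58°C. Quantification used TMTpro 16plex LC-MS/MS with channel sums equalised, and values are log-two fold changes in thermal stability relative to solvent controls from duplicates.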

Protein sequences, listed by entry. Tags and fused reporters are not part of them. Lines headed by an entry give the natural chain unless they say otherwise; changes in a name come on top.
UniProt Q9UQB8: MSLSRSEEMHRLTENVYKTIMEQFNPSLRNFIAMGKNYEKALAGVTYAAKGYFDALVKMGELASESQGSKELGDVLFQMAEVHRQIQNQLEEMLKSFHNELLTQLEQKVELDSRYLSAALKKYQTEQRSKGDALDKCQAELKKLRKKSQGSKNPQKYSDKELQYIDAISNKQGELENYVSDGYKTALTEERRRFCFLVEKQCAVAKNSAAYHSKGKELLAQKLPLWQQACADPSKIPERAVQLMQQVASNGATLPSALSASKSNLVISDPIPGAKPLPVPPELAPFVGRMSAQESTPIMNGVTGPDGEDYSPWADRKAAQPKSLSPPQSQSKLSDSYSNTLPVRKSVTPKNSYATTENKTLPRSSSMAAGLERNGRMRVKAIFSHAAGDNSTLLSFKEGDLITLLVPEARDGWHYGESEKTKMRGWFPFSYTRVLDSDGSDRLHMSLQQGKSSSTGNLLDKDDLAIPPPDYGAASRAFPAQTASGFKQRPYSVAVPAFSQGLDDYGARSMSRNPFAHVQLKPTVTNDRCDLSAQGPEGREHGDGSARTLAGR
UniProt Q99933: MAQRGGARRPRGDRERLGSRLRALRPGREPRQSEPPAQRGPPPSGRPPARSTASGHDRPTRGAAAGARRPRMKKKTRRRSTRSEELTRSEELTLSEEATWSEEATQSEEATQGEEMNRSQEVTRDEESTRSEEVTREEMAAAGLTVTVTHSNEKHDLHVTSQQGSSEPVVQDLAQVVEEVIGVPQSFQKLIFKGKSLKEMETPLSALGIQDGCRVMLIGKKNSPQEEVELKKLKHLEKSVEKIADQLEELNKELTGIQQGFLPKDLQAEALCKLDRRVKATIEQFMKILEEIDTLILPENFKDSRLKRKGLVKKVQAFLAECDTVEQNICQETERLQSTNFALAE
UniProt Q9BQE9, whole entry, looked up: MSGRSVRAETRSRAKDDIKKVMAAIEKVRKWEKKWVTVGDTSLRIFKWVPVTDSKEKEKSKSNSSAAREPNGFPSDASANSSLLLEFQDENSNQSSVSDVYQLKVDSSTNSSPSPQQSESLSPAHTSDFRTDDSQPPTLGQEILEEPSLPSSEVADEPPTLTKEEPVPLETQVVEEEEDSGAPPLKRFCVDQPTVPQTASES
UniProt Q9NYF8, whole entry, looked up: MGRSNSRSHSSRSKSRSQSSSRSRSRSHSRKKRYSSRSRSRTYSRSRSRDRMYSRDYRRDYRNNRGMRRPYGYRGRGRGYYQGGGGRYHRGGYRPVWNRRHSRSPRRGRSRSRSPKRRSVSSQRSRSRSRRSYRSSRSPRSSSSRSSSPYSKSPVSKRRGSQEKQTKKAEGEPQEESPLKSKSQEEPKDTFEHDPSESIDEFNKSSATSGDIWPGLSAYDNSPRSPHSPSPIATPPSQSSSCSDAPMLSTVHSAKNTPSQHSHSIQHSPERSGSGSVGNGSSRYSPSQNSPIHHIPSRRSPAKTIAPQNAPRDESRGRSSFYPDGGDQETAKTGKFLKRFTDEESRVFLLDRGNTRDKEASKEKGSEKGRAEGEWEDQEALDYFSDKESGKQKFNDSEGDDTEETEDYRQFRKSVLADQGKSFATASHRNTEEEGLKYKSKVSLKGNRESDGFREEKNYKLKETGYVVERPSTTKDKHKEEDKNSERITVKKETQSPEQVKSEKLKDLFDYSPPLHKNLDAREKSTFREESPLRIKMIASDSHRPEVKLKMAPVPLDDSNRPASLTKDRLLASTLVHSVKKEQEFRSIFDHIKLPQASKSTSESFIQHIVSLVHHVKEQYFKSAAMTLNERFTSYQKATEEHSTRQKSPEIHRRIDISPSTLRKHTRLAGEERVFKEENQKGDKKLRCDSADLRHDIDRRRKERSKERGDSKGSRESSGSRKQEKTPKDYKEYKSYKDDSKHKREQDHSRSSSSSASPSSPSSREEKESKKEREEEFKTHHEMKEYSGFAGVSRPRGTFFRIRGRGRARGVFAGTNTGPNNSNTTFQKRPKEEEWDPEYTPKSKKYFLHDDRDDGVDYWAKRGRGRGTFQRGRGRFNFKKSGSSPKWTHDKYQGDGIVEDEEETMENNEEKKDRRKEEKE
UniProt Q8TDH9: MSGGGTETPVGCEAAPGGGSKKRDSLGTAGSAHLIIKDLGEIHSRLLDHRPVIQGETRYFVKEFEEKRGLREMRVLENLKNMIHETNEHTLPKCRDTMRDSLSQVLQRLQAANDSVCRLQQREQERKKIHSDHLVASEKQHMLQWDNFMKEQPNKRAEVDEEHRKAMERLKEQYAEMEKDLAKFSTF
UniProt Q7KYR7: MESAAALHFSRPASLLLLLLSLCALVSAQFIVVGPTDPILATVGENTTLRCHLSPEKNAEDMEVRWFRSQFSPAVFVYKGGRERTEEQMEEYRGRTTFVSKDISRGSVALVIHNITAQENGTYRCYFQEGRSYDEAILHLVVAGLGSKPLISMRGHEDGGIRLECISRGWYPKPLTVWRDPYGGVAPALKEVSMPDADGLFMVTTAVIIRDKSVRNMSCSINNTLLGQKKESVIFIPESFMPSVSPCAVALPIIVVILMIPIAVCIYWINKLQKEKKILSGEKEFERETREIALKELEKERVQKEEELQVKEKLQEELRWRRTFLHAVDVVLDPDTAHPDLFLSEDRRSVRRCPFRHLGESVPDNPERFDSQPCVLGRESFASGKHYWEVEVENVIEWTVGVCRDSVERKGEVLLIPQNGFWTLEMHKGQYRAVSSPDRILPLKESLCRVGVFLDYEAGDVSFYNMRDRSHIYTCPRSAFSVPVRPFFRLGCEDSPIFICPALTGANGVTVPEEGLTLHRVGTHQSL
UniProt Q92843: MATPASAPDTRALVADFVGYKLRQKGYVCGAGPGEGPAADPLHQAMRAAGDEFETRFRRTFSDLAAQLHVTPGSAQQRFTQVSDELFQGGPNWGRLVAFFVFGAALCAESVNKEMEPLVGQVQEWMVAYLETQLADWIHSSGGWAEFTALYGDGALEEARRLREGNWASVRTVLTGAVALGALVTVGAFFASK
UniProt Q8TDN6: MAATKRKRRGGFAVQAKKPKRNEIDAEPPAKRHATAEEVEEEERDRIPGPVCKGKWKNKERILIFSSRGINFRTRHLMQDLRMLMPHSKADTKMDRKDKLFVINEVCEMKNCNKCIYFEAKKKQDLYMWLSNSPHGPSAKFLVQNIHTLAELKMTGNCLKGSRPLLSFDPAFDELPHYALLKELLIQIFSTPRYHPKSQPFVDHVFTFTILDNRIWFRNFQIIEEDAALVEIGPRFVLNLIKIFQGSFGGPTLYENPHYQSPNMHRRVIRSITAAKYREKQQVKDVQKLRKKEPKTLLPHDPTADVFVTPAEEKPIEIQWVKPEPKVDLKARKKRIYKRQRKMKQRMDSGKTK
UniProt Q96KE9: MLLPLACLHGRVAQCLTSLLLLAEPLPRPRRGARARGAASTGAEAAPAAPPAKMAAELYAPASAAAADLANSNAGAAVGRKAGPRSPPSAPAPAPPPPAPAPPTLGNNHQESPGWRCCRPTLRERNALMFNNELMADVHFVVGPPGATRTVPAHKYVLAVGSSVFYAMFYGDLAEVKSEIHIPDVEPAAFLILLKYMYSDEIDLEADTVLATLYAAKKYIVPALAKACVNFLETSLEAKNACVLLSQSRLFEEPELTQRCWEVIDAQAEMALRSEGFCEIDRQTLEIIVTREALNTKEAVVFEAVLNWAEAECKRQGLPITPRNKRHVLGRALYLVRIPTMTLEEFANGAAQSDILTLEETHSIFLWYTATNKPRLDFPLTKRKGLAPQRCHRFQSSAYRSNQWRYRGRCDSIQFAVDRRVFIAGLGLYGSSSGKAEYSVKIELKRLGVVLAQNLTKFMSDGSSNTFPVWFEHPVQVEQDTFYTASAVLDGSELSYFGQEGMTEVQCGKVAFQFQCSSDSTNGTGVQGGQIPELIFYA
UniProt Q6W2J9: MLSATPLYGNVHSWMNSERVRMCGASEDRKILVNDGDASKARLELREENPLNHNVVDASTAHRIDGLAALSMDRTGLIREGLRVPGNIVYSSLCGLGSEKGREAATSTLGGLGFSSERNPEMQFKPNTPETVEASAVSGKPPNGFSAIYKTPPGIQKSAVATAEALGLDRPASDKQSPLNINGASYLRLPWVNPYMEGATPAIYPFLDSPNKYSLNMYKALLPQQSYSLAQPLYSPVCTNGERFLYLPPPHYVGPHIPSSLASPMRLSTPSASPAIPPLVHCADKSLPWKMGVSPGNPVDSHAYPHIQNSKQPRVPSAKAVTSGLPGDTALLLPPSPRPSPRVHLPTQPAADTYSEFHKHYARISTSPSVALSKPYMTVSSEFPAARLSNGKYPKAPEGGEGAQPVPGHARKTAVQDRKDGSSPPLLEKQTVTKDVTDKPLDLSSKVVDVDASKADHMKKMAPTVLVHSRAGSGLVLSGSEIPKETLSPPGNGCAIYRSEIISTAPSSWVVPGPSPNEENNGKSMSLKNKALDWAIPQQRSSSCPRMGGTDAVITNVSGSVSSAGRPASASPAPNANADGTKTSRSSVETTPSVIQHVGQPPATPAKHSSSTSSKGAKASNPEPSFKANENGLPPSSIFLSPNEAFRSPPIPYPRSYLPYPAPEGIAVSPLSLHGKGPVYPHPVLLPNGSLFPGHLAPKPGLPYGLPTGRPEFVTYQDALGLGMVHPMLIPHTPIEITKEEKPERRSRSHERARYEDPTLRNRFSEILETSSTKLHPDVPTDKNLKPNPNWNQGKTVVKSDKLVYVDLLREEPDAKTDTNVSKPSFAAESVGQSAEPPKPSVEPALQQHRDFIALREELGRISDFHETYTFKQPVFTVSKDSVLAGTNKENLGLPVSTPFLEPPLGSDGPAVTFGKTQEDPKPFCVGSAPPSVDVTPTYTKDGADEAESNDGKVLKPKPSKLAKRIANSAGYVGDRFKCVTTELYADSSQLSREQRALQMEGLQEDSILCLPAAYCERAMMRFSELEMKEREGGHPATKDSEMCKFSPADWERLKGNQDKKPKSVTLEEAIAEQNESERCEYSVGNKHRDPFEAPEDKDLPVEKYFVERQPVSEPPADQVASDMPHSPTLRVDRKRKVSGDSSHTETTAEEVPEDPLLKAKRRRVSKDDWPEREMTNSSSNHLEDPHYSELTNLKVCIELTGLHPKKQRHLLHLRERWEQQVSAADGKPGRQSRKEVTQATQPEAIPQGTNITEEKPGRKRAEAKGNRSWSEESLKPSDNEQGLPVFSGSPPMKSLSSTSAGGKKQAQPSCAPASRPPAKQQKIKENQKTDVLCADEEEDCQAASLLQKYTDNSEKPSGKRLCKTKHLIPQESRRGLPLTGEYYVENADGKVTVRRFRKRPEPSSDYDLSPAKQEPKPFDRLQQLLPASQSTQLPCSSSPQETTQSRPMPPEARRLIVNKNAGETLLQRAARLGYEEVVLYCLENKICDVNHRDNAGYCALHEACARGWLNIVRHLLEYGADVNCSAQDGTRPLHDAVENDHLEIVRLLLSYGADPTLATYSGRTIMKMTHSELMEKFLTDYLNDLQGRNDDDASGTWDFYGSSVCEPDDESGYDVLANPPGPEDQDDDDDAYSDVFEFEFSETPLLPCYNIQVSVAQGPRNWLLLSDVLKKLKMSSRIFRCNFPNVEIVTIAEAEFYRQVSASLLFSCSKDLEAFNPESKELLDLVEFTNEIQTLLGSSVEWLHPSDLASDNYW
UniProt Q86WA6: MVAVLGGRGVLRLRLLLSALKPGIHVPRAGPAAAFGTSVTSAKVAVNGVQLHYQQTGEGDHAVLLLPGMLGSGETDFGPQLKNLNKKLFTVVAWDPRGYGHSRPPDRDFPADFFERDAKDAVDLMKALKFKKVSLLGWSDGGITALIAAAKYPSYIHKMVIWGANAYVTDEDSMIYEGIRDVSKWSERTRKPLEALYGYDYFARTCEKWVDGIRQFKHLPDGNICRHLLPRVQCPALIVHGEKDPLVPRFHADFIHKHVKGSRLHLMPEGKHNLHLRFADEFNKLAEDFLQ
UniProt O15155: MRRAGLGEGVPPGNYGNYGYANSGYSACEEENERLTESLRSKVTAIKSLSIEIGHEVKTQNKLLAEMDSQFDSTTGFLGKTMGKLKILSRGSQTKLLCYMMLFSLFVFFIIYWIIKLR
UniProt Q96GS4: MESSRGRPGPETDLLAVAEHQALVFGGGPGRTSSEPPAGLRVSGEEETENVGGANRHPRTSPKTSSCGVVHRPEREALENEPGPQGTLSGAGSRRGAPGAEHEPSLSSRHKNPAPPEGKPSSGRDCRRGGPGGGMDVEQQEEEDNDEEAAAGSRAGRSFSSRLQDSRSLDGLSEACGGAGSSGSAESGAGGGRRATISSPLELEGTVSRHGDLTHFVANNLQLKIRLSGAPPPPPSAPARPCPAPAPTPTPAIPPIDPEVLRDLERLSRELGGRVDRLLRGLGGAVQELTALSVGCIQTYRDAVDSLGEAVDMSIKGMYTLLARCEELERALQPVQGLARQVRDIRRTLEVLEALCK
UniProt O15392, whole entry, looked up: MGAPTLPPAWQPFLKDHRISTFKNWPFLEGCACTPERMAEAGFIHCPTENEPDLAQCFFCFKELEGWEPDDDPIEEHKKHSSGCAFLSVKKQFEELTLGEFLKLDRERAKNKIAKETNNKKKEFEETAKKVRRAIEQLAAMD

log2 fold change, inactive:
BRD8 isoform 2 (UniProt Q9H0E9) 0.064
BAIAP2 (UniProt Q9UQB8) 0.031
BAG6 isoform 3 (UniProt P46379) 0.029
BPTF (UniProt Q12830) -0.029
BAG1 (UniProt Q99933) -0.004
BCL7B (UniProt Q9BQE9) -0.304
BCLAF1 (UniProt Q9NYF8) 0.01
BLOC1S5 (UniProt Q8TDH9) 0.052
BTN2A1 (UniProt Q7KYR7) 0.01
BAG5 isoform 2 (UniProt Q9UL15) 0.049
BCL2L2 isoform 2 (UniProt Q92843) -0.005
BRCA1 isoform 7 (UniProt P38398) 0.017
BRIX1 (UniProt Q8TDN6) -0.022
BCL7C isoform 2 (UniProt Q8WUZ0) 0.031
BTBD6 (UniProt Q96KE9) -0.011
BCOR (UniProt Q6W2J9) 0.07
BORCS5 (UniProt Q969J3) 0.088
BPHL (UniProt Q86WA6) -0.073
BET1 (UniProt O15155) -0.03
BNIP2 (UniProt J3KN59) 0.047
BORCS6 (UniProt Q96GS4) -0.02
BIRC5 (UniProt O15392) 0.105

An excerpt of the results above, for reference:
log2 fold change, inactive:
BCL7B (UniProt Q9BQE9) -0.304
BCLAF1 (UniProt Q9NYF8) 0.01

Reference: the supplement of paper PMC10849652
